# Results: PubChem BioAssay AID540276 (National Center for Advancing Translational Sciences (NCATS), 2011)
# Where “and” joins values, the source holds several entries; their conditions need not be identical. Equal values may be shown once. Among all 300,000 compounds or so, about 5,400 (1.8%) were called active. The inconclusive results got no clear call from the source; some entries with a clear call stand among them for comparison. Calls come from the whole dose curve; tested in HEK293 cells. Potencies beside an inconclusive call are fits to weak or partial responses and may not hold up.
# Assay: qHTS for inhibitors of binding or entry into cells for Marburg Virus
# Settings: Marburg virus pseudotyped entry inhibition, cell reporter; series mostly up to 37.8 µM
# Potency is the fitted concentration of half-maximal effect.
row,Compound,Potency
1,O=c1c2c3c(sc2n(CCN2CCOCC2)c(=O)n1Cc1ccco1)CCCCC3,"inconclusive: 3.66 µM [inhibitor, full curve, poor fit]"
2,O=C(NCC1CCCCN1)c1cc(OCC(F)(F)F)ccc1OCC(F)(F)F (stereo unspecified),"inconclusive: 3.98 µM [inhibitor, full curve]"
3,CCOC(=O)c1oc2ccc(S(=O)(=O)N3CCOCC3)cc2c1C,inactive
4,Cn1c(CNC(=O)OC(C)(C)C)nnc1SCC(=O)N1CCOCC1,inactive
5,O=C(c1cc(-c2cccc(O)c2)on1)N1CCCCCC1,"inconclusive: 14.1 µM [inhibitor, partial curve, poor fit]"
6,CCOC(=O)C(=O)Nc1nnc(SCc2ccc(F)cc2)s1,"inconclusive: 32.6 µM [activator, single point]"
7,CC(=O)N1N=C(c2ccco2)CC1c1cc2ccc(C)cc2nc1Cl (stereo unspecified),"inconclusive: 2.82 µM [inhibitor, partial curve, poor fit]"
8,Nc1c(S(=O)(=O)c2cc(Cl)ccc2Cl)c2nc3ccccc3nc2n1CCN1CCOCC1,inactive
9,CCc1ccc(S(=O)(=O)c2nnn3c2nc(NC(C)C)c2cc(Cl)ccc23)cc1,inactive
10,O=C(NC1c2ccccc2-c2ccccc21)c1ccco1,inactive
11,Cc1cccc(N(CC(=O)N(C)Cc2ccccc2)S(=O)(=O)c2ccccc2)c1C,"inconclusive: 35.5 µM [inhibitor, single point]"
12,CCC(=O)N1CCc2cc(Br)cc(S(=O)(=O)N3CCCC(C(=O)Nc4ccc(OC)cc4OC)C3)c21 (stereo unspecified),inactive
13,Cn1ccnc1SCC(=O)Nc1cccc2ccccc12,"inconclusive: 29.1 µM [activator, single point]"
14,Cn1c(=O)c2c([nH]c(=O)n2C)n(C)c1=O,"inconclusive: 8.2 µM [activator, partial curve, poor fit]"
15,COCCn1c(SCC(=O)Nc2nc(C)c(Cl)cc2Cl)nc2ccccc21,"inconclusive: 15.8 µM [inhibitor, partial curve, poor fit]"
16,CC(C)(C)c1ccc(C(=O)NNC(=S)NC(=O)c2cccnc2)cc1,"inconclusive: 4.47 µM [inhibitor, partial curve, poor fit]"
17,Cc1cc(NC(=O)COC(=O)c2c(C)nn(-c3ccccc3)c2C)no1,"inconclusive: 20.6 µM [inhibitor, single point]"
18,COc1ccc(C2=NN(C(=O)COC(=O)c3ccc(S(C)(=O)=O)c([N+](=O)[O-])c3)C(c3ccco3)C2)cc1 (stereo unspecified),"inconclusive: 35.5 µM [inhibitor, single point]"
19,CN(c1ccc([N+](=O)[O-])cc1/C=N/NC(=O)COc1ccccc1)C1CCCCC1,inactive
20,O=[N+]([O-])c1ccc(S(=O)(=O)CC2CSc3nc4ccccc4n32)cc1 (stereo unspecified),"inconclusive: 6.31 µM [inhibitor, partial curve, poor fit]"
21,Cc1ccc(S(=O)(=O)Nc2cc(C(=O)N3CCC4(CC3)OCCO4)ccc2N2CCCCC2)cc1,"inconclusive: 2.51 µM [inhibitor, full curve, poor fit]"
22,Cc1cccc(OCC(=O)N(Cc2ccc(N(C)C)cc2)Cc2ccco2)c1C,"inconclusive: 35.5 µM [inhibitor, single point]"

# A different layout for four compounds above:
row | Compound | Potency
11 | Cc1cccc(N(CC(=O)N(C)Cc2ccccc2)S(=O)(=O)c2ccccc2)c1C | inconclusive: 35.5 µM [inhibitor, single point]
12 | CCC(=O)N1CCc2cc(Br)cc(S(=O)(=O)N3CCCC(C(=O)Nc4ccc(OC)cc4OC)C3)c21 (stereo unspecified) | inactive
13 | Cn1ccnc1SCC(=O)Nc1cccc2ccccc12 | inconclusive: 29.1 µM [activator, single point]
14 | Cn1c(=O)c2c([nH]c(=O)n2C)n(C)c1=O | inconclusive: 8.2 µM [activator, partial curve, poor fit]

# More structures follow:

row,Compound,Potency
1,COc1ccc(C2C=C(c3ccccc3)Nc3nc(NC(=O)/C=C/c4ccccc4OC)nn32)cc1 (stereo unspecified),inactive
2,CC(C)Cn1c(C(C)C)nc([N+](=O)[O-])c1S(=O)(=O)c1ccc(F)cc1,"inconclusive: 23.1 µM [inhibitor, partial curve, poor fit]"
3,Cc1cc(C)nc(Nc2nc3ccccc3[nH]2)n1,"inconclusive: 5.62 µM [activator, single point]"
4,O=C(CSc1ncn(-c2ccccc2)n1)c1cccs1,"inconclusive: 3.55 µM [activator, single point]"
5,CCc1cc2c(C)ccc(C)c2nc1SCC(=O)Nc1cc(C)on1,"inconclusive: 4.47 µM [inhibitor, single point]"
6,CCCC1CCC(C(=O)n2nc(N)c3cc4ccc(OC)cc4nc32)CC1 (stereo unspecified),inactive
7,CCOc1ccc(-c2cc(C(=O)N/N=C(\C)c3cccnc3)c3ccccc3n2)cc1,"inconclusive: 10 µM [inhibitor, partial curve, poor fit]"
8,Cc1nc2ccccc2c(=O)n1-c1ccc(Cl)c(Cl)c1,"inconclusive: 35.5 µM [activator, single point]"
9,CC(C)(C)C1C/C(=C/c2ccco2)C(=O)/C(=C/c2ccco2)C1 (stereo unspecified),"inconclusive: 29.1 µM [inhibitor, single point]"
10,COc1ccc(C2Nc3ccccc3C(=O)N2Cc2ccco2)cc1COc1ccc([N+](=O)[O-])cc1 (stereo unspecified),"inconclusive: 11.2 µM [inhibitor, single point]"
11,O=C(Nc1ccc2c(c1)OCCO2)c1ccc(Cl)cc1Cl,"inconclusive: 4.47 µM [inhibitor, full curve]"
12,O=C(CSc1nc2ccccc2c(=O)[nH]1)Nc1ccc(C(=O)O)cc1,inactive
13,C=CCNc1nc2c(c(=O)n(C)c(=O)n2C)n1CCCCCC,"inconclusive: 10.3 µM [inhibitor, partial curve, poor fit]"
14,COc1cc(Cl)ccc1OCc1cc(C(=O)N2C[C@H]3CC[C@H]2C3)no1,inactive
15,Cn1cc(Cl)c(C(=O)Nc2cnn(Cc3ccc(F)cc3)c2)n1,"inconclusive: 29.1 µM [activator, single point]"
16,Nc1ncc(CCN2CCOCC2)c(-c2ccc(F)cc2)n1,inactive
17,Cn1ncc(Oc2ccc([N+](=O)[O-])cc2)c(Cl)c1=O,inactive
18,CCC(C)(C)NC(=O)C(c1ccc(C)o1)N(Cc1cccs1)C(=O)Cn1nnc2ccccc21 (stereo unspecified),"inconclusive: 11.2 µM [inhibitor, partial curve, poor fit]"
19,O=C(/C=C\Nc1ccc(Br)cc1)c1cccnc1,"inconclusive: 35.5 µM [inhibitor, single point]"
20,COCCNC(=O)NC(=O)CSc1nc(C)c(C)c(C)n1,"inconclusive: 0.562 µM [activator, full curve, poor fit]"
21,CCCC(=O)NNC(=O)c1ccoc1C,inactive
22,COc1c(C)cc(S(=O)(=O)NCCN2CCOCC2)c(C)c1C,inactive

row,Compound,Potency
1,COc1ccc(S(=O)(=O)N2CCN(Cc3cccc(F)c3)CC2)cc1,"inconclusive: 7.08 µM [inhibitor, partial curve, poor fit]"
2,COc1ccc2c(c1OC)CN1CCc3cc4c(cc3C1C2)OCO4 (stereo unspecified),"inconclusive: 8.91 µM [inhibitor, partial curve, poor fit]"
3,COc1cccc(NC(=O)CN(C)CC(=O)Nc2ccc(C)c(S(=O)(=O)N3CCOCC3)c2)c1,"inconclusive: 12.6 µM [inhibitor, single point]"
4,COc1ccc(N2CCN(C(=O)Nc3ccccc3Cl)CC2)cc1,"inconclusive: 3.55 µM [activator, single point]"
5,CCCC(=O)n1nc(-c2cccnc2)nc1NCc1ccccc1,"inactive and inconclusive: 6.31 µM [inhibitor, single point]"
6,CCc1ccccc1NC(=O)Cn1c(=O)n(CCc2ccccc2)c(=O)c2ccccc21,"inconclusive: 3.55 µM [activator, single point]"
7,O=C(CSc1nnc(NC(=O)c2ccccc2F)s1)NCc1ccc(F)cc1,"inconclusive: 6.31 µM [activator, partial curve, poor fit]"
8,CC[n+]1c(C=C2C=C(C)OC(C)=C2)sc2ccccc21,"inconclusive: 2 µM [inhibitor, full curve, poor fit]"
9,Cc1nnc(NC(=O)C(C)Oc2ccc3c(C)cc(=O)oc3c2)s1 (stereo unspecified),"inconclusive: 0.316 µM [activator, partial curve, poor fit]"
10,Clc1ccccc1-c1nnc(SCc2nc(-c3ccccc3)no2)n1-c1ccccc1,"inconclusive: 5.01 µM [inhibitor, partial curve, poor fit]"
11,O=C(CN1C(=O)COc2ccccc21)Nc1ccc2c(c1)OCCO2,inactive
12,CCc1cccc2c(C(=O)CN3C(=O)NC4(CCc5ccccc54)C3=O)c[nH]c12 (stereo unspecified),"inconclusive: 5.62 µM [inhibitor, full curve]"
13,Cc1onc(-c2c(F)cccc2Cl)c1C(=O)O/N=C(\N)c1ccc([N+](=O)[O-])o1,inactive
14,Cc1cc(F)ccc1S(=O)(=O)N1CCCCC1CCNC(=O)C(=O)NCc1ccccn1 (stereo unspecified),"inconclusive: 3.55 µM [inhibitor, partial curve, poor fit]"
15,CCCC(=O)Nc1nc2ccc3nc(C)sc3c2s1,inactive
16,CCOC(=O)c1ccc(-c2ccc(/C=C(\C#N)C(=O)NCc3cccs3)o2)cc1,"inconclusive: 5.62 µM [activator, single point]"
17,CCCCCN(C(=O)CCC(=O)OCc1ccc(C(C)C)cc1)c1c(N)n(CCCC)c(=O)[nH]c1=O,"inconclusive: 35.5 µM [inhibitor, single point]"
18,Cc1ccc(C(=O)/C=C/Nc2cccc(O)c2)cc1,"inconclusive: 16.4 µM [inhibitor, single point]"
19,CC12CCC(=O)N1C(C(=O)Nc1ccc(Cl)c(S(=O)(=O)N3CCCCC3)c1)CS2 (stereo unspecified),"inconclusive: 17.8 µM [inhibitor, single point]"
20,COc1cccc(NC(=O)N(CCCN2CCOCC2)C(C)c2cc3cccc(OC)c3o2)c1 (stereo unspecified),inactive
21,Cc1c(NC(=O)C(C)OC(=O)/C=C/c2ccco2)c(=O)n(-c2ccccc2)n1C (stereo unspecified),inactive
22,O=c1n(-c2ccccc2)c(=O)n2n1CCCC2,inactive
